{"sequences": {"note": "Sequences of proteins named here, by UniProt entry; tags and fusion partners are left off. A change or cut given only in a name is not applied to a line headed by its entry.", "UniProt Q02732": "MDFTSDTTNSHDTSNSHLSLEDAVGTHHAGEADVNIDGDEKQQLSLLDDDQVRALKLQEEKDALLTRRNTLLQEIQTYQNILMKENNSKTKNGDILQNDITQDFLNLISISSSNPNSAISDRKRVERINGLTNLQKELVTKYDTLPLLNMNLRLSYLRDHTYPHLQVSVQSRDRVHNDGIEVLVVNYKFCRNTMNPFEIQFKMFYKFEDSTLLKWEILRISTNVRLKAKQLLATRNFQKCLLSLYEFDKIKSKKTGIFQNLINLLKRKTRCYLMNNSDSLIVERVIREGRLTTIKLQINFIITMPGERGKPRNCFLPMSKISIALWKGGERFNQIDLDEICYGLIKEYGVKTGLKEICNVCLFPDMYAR", "UniProt Q06675": "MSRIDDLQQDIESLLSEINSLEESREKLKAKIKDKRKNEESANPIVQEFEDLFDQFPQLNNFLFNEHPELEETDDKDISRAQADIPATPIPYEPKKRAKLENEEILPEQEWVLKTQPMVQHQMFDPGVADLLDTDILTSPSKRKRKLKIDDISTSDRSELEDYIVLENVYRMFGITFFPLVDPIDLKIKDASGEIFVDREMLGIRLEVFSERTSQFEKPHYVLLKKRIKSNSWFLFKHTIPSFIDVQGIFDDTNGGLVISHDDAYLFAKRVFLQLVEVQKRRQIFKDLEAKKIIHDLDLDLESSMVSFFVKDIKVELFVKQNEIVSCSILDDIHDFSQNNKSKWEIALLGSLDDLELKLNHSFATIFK"}, "source": "paper doi:10.1101/444570", "about": "(bioRxiv, 2018)", "molecules": {"B1": {"name": "Ipl1 (enzyme, UniProt P38991 1-367)", "chain": "MQRNSLVNIKLNANSPSKKTTTRPNTSRINKPWRISHSPQQRNPNSKIPSPVREKLNRLPVNNKKFLDMESSKIPSPIRKATSSKMIHENKKLPKFKSLSLDDFELGKKLGKGKFGKVYCVRHRSTGYICALKVMEKEEIIKYNLQKQFRREVEIQTSLNHPNLTKSYGYFHDEKRVYLLMEYLVNGEMYKLLRLHGPFNDILASDYIYQIANALDYMHKKNIIHRDIKPENILIGFNNVIKLTDFGWSIINPPENRRKTVCGTIDYLSPEMVESREYDHTIDAWALGVLAFELLTGAPPFEEEMKDTTYKRIAALDIKMPSNISQDAQDLILKLLKYDPKDRMRLGDVKMHPWILRNKPFWENKRL"}}, "key": {"[1]": {"target": "T1, Sli15-2xStrep/Ipl1 (wild type, not phosphorylated) (S. cerevisiae (budding yeast)) (UniProt P38283+P38991)", "T1 sequence 1": "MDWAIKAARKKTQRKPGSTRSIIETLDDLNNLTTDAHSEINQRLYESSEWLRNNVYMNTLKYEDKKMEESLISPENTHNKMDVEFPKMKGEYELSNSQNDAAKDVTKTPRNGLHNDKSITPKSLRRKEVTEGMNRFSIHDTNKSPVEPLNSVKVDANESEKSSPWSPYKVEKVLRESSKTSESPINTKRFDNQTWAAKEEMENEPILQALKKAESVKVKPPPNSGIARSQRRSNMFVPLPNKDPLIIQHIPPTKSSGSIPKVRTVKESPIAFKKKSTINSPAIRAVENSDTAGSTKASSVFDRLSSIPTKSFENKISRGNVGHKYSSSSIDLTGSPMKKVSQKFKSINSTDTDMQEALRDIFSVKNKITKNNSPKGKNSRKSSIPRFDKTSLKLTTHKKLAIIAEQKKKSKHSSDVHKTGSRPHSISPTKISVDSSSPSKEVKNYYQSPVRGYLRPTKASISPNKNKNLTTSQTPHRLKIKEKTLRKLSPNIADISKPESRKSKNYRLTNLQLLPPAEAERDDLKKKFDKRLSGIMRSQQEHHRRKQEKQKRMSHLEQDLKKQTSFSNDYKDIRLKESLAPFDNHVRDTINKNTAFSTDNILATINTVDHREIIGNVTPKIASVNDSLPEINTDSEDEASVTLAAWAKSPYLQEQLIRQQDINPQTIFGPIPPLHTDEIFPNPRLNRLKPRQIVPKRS", "T1 sequence 2": "B1 chain", "assay": "pull-down"}, "[2]": {"target": "T2, Sli15-P4-2xStrep/Ipl1 (phosphorylation-mimicking mutant P4) (S. cerevisiae (budding yeast)) (UniProt P38283+P38991)", "T2 sequence 1": "T1 sequence 1 with S382D, S383D, S425D, S427D, T429D, S437D, T457D, S460D, S462D, S489D", "T2 sequence 2": "B1 chain", "assay": "pull-down"}, "[3]": {"target": "T3, Sli15∆N2-500-2xStrep/Ipl1 (S. cerevisiae (budding yeast)) (UniProt P38283+P38991)", "T3 sequence 1": "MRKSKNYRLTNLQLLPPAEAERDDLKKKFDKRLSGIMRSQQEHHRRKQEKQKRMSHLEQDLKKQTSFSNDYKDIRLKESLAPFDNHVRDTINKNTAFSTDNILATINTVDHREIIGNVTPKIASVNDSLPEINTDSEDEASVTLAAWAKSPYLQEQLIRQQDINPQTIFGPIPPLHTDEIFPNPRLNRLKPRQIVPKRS", "T3 sequence 2": "B1 chain", "assay": "pull-down"}, "[4]": {"target": "T4, Sli15 (S. cerevisiae (budding yeast)) (UniProt P38283)", "T4 sequence": "T1 sequence 1", "assay": "co-purification of co-expressed subunits"}}, "note": "Where a chain is given by its changes, count along the chain named. These are yes or no findings as the source states them, for the method shown. Some results given as binding are weak or reduced against the parent protein; the word gives no strength."}
{"molecule": "Ctf19ΔC/Mcm21 (from UniProt Q02732;Q06675) (complex)", "values": [{"measurement": "binding", "setting": "[1]", "value": "no binding (tested: 2-fold molar excess)"}]}
{"molecule": "Ctf19/Mcm21 heterodimer (wild type) (from UniProt Q02732;Q06675) (complex)", "values": [{"measurement": "binding", "setting": "[2]", "value": "no binding"}, {"measurement": "binding", "setting": "[3]", "value": "no binding"}]}
{"molecule": "B1", "values": [{"measurement": "binding", "setting": "[4]", "value": "binds"}]}
